These are yes or no findings as the source states them, for the method shown. Binding seen in cells or lysates may run through a third protein. Some entries that bind do so weakly or less than the wild type.
Legend:
[1] = target: T1, endogenous mSin3a (SW480 cells) (human (endogenous in SW480)) (UniProt Q96ST3); assay: co-IP
T1 sequence: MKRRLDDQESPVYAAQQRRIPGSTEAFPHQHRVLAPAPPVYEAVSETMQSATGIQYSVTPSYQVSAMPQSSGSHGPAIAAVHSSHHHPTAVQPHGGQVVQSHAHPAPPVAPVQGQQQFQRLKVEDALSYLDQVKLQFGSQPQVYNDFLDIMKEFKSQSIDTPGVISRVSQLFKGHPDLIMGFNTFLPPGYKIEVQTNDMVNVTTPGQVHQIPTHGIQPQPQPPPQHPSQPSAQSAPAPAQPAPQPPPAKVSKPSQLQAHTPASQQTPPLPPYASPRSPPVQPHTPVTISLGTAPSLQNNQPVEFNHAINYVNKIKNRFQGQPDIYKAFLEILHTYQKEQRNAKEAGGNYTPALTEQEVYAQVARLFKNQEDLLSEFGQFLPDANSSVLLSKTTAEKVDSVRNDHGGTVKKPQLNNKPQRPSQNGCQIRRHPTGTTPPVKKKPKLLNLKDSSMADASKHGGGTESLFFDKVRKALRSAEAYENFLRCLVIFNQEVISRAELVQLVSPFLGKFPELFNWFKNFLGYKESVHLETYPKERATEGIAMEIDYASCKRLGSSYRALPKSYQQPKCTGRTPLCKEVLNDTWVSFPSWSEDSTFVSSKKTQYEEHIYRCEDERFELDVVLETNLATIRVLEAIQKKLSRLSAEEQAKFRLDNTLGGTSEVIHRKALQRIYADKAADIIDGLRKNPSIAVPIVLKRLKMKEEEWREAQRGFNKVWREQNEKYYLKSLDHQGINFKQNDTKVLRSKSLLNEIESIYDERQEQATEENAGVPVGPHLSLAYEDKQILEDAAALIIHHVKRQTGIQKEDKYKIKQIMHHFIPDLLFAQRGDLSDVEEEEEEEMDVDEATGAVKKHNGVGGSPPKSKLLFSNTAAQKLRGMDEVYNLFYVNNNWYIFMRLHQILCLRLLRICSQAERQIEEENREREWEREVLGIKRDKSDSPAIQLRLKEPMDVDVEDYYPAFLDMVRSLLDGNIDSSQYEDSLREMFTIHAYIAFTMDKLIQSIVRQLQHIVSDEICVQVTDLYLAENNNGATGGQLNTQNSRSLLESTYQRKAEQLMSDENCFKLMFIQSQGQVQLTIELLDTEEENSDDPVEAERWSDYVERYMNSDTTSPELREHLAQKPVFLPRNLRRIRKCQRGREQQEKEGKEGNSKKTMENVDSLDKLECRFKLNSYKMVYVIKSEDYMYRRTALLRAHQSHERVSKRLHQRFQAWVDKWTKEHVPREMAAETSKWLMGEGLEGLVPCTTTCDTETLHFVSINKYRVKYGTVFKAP

Amino acid sequences for entries named in this document (tags omitted).
UniProt Q99929: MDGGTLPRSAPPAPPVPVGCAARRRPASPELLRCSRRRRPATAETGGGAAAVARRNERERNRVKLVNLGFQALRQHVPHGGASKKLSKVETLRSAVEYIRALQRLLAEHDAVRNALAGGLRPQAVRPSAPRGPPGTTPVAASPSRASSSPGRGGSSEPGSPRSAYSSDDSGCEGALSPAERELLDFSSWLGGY

[2] = target: T2, endogenous HDAC7 (SW480 cells) (human (endogenous in SW480)) (UniProt Q8WUI4); assay: co-IP
T2 sequence: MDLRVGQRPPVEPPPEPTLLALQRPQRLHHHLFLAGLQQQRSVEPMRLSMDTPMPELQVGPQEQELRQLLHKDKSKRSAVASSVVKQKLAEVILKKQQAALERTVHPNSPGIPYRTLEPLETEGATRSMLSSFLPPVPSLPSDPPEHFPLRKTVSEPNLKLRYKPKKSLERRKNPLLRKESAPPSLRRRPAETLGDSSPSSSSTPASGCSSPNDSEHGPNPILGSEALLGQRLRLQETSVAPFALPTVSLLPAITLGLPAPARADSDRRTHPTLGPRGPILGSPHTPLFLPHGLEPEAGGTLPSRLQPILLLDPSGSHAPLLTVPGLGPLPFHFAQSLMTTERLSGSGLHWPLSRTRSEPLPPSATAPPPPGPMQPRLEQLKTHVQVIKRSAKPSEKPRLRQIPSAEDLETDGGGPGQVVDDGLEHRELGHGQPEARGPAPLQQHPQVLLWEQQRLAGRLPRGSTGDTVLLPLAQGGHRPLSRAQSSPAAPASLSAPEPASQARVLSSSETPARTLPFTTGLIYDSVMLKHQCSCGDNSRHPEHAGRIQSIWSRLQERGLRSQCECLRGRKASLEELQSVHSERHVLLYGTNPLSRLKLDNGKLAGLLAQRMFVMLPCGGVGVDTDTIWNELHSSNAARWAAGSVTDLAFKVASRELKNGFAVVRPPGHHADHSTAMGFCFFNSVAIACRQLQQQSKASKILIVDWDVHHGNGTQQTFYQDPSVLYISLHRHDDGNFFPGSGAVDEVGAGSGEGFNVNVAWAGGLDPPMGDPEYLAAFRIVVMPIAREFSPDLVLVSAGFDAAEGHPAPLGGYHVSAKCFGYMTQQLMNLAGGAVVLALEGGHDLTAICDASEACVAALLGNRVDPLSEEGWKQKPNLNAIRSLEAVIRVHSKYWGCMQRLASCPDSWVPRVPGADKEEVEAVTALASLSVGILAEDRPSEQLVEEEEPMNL

[3] = target: T1, endogenous mSin3a (SW480 cells) (human (endogenous in SW480)); assay: proximity ligation
[4] = target: T2, endogenous HDAC7 (SW480 cells) (human (endogenous in SW480)); assay: proximity ligation
[5] = target: endogenous Ascl2 (SW480 cells) (human (endogenous in SW480)) (UniProt Q99929); assay: proximity ligation

binding [1]: binds
binding [2]: binds
binding [3]: binds
binding [4]: binds
binding [5]: binds
B1: endogenous p57^Kip2 (SW480 cells) (protein, UniProt P49918 1-316)
chain: MSDASLRSTSTMERLVARGTFPVLVRTSACRSLFGPVDHEELSRELQARLAELNAEDQNRWDYDFQQDMPLRGPGRLQWTEVDSDSVPAFYRETVQVGRCRLLLAPRPVAVAVAVSPPLEPAAESLDGLEEAPEQLPSVPVPAPASTPPPVPVLAPAPAPAPAPVAAPVAAPVAVAVLAPAPAPAPAPAPAPAPVAAPAPAPAPAPAPAPAPAPAPDAAPQESAEQGANQGQRGQEPLADQLHSGISGRPAAGTAAASANGAAIKKLSGPLISDFFAKRKRSAPEKSSGDVPAPCPSPSAAPGVGSVEQTPRKRLR

Source: article doi:10.1101/2022.09.09.507138
